Results as given in publication PMC11600263.

Amino acid sequences for entries named in this document (tags omitted).
UniProt Q00534: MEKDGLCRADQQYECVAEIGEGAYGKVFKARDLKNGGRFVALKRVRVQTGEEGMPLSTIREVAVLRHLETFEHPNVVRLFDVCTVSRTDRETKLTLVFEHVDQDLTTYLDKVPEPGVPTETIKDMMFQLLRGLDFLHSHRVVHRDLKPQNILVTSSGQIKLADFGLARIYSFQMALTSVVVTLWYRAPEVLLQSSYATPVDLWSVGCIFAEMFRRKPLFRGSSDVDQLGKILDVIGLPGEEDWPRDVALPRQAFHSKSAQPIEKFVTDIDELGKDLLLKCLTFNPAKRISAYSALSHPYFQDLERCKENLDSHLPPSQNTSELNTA

Target: T1, delta‐catenin (CTNND1) (human (endogenous in HDFα)) (UniProt O60716)
T1 sequence: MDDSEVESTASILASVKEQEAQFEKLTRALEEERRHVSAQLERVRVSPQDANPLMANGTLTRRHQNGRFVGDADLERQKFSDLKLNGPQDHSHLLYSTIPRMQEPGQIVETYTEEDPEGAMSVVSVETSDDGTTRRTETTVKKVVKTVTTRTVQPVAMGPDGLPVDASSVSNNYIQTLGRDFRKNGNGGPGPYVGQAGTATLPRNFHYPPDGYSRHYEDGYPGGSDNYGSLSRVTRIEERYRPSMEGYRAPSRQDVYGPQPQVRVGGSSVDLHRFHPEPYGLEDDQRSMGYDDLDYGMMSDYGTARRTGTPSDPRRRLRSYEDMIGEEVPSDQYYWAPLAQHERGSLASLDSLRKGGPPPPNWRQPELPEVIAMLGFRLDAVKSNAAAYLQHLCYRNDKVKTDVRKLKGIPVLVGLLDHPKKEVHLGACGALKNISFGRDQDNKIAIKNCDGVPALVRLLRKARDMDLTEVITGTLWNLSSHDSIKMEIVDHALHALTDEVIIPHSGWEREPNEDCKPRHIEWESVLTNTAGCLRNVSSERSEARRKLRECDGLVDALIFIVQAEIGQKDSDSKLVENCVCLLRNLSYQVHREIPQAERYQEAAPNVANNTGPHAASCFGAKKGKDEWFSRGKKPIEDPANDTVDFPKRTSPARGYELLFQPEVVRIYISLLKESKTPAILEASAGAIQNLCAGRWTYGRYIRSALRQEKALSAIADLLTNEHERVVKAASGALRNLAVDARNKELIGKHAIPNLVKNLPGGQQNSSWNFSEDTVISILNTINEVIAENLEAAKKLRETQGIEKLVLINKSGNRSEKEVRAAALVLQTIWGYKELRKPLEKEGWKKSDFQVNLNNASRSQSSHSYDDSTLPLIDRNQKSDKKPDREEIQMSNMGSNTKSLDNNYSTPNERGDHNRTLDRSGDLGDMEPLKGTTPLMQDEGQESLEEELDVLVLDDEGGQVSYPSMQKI
Experiment: affinity purification with mass spectrometry; immunoprecipitation with anti‐CTNND1 coupled with proteomics analysis in 7Ap‐treated HDFα cells

In the case of “cyclin‐dependent kinase 6 (CDK6) (from UniProt Q00534 1-326) (enzyme)”, the binding is reported as “binds”.

These are yes or no findings as the source states them, for the method shown. Binding seen in cells or lysates may run through a third protein. A yes stands for co-enrichment or nearness to the bait. Other partners may have been found.
